Measurements reported in the supplement of paper PMC12819154, “High-throughput peptide-centric local stability assay extends protein–ligand identification to membrane proteins, tissues and bacteria” (Nature Structural & Molecular Biology, 2025).
Some of the results follow. Most values lie at the level of the controls, where differences are scatter.

By UniProt entry, the sequences of proteins in these tests, tags left out. Where a name states a change or a piece, a line headed by the entry shows the natural chain unless it says otherwise.
UniProt P13796: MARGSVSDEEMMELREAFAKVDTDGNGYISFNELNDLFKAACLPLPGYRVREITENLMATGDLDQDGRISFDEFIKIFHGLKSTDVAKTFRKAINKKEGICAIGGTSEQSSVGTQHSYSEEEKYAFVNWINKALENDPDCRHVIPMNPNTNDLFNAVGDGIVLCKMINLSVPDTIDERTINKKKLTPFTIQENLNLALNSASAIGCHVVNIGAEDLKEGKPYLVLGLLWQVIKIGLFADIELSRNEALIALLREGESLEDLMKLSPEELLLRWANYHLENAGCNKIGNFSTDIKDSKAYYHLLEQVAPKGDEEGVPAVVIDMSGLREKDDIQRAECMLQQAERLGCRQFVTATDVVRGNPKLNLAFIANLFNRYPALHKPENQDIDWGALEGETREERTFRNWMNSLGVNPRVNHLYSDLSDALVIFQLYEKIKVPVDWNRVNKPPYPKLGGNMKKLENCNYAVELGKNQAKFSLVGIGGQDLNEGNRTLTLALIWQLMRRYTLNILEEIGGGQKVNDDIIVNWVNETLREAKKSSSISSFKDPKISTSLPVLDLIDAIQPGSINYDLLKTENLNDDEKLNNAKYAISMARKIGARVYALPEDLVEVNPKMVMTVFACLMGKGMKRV
UniProt P28288: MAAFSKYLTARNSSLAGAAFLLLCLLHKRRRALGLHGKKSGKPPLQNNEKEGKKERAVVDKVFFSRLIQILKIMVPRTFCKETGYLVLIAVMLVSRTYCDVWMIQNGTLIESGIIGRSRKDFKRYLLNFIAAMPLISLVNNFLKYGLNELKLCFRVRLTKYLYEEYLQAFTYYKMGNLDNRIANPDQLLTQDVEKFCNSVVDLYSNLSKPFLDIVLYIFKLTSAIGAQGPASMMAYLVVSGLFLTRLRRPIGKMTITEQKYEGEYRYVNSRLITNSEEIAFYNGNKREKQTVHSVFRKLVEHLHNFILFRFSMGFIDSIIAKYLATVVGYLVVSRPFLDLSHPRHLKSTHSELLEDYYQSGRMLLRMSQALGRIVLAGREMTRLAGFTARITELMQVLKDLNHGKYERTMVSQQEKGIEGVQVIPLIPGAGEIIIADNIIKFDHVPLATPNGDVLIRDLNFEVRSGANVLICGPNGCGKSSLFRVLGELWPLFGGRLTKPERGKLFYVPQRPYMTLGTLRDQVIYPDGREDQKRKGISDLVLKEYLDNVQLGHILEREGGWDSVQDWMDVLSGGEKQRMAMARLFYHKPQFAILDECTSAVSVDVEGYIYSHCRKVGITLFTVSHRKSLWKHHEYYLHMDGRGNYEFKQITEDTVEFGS
UniProt P17096: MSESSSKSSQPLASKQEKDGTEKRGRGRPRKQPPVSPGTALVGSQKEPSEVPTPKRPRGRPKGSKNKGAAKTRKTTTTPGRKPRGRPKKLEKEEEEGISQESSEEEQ
UniProt P22670: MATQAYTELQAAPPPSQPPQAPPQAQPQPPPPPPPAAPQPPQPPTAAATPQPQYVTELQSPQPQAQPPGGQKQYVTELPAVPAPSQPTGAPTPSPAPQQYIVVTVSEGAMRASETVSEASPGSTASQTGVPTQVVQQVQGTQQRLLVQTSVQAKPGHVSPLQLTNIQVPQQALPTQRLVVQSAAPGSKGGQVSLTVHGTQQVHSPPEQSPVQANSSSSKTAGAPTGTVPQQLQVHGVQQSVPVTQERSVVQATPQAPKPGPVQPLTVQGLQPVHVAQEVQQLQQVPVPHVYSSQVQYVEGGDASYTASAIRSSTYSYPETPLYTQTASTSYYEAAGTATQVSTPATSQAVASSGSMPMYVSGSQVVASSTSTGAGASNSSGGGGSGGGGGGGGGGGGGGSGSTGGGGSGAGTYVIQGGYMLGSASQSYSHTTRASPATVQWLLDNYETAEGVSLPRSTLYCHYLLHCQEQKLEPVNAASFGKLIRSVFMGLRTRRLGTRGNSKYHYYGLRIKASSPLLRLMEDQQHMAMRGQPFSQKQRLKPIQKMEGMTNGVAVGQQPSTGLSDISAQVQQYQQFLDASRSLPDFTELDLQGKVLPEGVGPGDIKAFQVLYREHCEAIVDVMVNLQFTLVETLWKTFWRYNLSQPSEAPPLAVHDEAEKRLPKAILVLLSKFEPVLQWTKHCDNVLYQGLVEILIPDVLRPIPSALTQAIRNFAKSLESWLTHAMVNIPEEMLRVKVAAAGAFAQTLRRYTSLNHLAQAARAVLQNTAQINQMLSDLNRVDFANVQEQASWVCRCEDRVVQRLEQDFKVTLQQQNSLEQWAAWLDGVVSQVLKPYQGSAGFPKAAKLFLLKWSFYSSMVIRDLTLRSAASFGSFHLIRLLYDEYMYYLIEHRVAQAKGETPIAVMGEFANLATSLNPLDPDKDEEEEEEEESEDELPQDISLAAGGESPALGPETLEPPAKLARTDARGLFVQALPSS
UniProt P24534: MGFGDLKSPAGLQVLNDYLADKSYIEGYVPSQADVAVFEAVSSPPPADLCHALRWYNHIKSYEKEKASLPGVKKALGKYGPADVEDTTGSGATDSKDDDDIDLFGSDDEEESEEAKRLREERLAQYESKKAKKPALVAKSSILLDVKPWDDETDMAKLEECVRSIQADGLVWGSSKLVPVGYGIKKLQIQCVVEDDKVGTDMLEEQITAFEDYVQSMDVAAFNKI
UniProt P26639: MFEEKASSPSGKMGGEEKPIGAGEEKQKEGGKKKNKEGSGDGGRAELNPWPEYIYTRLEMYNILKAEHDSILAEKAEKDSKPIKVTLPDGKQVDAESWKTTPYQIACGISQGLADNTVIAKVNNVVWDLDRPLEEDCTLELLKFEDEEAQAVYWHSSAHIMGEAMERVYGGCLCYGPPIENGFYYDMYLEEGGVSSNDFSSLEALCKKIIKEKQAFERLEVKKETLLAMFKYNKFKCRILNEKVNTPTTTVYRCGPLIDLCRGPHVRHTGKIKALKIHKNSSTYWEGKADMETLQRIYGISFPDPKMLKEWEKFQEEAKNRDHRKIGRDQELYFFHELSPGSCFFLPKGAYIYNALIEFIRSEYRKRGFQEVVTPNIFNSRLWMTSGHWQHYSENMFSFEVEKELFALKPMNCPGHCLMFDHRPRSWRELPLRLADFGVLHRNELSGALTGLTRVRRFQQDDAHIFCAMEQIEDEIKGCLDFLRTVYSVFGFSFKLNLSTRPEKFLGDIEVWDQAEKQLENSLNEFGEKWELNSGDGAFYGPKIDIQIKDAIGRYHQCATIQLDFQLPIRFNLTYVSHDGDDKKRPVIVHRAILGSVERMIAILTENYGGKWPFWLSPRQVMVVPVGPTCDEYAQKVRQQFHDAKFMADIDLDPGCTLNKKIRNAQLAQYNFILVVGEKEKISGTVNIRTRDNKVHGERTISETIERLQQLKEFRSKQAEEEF
UniProt P15586: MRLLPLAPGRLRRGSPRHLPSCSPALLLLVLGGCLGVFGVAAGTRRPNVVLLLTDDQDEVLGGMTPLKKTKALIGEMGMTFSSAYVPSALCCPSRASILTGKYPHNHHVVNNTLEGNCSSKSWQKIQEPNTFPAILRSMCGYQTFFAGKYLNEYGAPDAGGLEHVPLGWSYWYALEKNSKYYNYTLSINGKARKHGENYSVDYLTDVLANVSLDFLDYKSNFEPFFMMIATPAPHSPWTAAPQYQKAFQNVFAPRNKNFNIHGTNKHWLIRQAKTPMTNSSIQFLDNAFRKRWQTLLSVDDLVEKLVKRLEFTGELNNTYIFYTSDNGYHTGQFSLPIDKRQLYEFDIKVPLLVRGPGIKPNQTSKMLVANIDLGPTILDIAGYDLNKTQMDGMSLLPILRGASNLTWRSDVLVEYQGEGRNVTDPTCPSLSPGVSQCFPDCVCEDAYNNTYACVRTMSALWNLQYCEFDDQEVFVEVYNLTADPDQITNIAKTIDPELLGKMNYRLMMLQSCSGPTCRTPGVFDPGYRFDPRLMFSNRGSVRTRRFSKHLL
UniProt P27694, whole entry: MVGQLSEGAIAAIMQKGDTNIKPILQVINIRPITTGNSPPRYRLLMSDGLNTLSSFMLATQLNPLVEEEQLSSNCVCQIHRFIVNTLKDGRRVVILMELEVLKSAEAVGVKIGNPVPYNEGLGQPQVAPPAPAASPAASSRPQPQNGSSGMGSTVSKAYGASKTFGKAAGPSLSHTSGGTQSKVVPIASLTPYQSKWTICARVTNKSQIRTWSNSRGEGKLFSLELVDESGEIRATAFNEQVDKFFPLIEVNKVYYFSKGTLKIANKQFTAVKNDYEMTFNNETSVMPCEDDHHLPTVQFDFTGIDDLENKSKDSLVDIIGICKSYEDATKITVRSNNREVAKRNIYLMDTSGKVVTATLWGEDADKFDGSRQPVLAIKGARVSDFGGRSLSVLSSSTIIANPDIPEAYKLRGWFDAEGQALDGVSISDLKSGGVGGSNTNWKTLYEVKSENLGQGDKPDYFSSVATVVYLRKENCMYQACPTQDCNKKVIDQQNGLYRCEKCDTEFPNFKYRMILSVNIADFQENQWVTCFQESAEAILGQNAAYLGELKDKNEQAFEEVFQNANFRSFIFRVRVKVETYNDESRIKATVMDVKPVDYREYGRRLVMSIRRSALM
UniProt P17858: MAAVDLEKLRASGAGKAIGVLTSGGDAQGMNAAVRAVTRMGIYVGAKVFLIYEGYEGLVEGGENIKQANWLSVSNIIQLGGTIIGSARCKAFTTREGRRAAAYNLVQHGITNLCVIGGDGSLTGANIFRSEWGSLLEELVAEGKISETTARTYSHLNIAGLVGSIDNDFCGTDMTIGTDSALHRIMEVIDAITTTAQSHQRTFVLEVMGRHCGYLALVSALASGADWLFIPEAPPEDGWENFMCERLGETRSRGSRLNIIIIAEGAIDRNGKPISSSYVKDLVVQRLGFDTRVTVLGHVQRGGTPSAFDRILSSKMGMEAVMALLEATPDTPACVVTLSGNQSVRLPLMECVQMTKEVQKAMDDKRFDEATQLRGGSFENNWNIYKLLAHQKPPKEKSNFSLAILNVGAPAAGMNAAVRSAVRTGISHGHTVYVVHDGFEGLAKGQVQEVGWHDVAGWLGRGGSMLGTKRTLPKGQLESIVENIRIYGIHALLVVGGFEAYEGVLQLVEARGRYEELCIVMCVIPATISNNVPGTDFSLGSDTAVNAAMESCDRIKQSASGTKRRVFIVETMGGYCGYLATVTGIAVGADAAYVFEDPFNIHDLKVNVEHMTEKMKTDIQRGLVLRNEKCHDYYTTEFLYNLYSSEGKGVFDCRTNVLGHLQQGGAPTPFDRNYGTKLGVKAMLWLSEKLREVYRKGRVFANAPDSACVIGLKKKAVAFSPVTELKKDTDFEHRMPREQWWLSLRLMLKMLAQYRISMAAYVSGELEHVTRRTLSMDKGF
UniProt P16885: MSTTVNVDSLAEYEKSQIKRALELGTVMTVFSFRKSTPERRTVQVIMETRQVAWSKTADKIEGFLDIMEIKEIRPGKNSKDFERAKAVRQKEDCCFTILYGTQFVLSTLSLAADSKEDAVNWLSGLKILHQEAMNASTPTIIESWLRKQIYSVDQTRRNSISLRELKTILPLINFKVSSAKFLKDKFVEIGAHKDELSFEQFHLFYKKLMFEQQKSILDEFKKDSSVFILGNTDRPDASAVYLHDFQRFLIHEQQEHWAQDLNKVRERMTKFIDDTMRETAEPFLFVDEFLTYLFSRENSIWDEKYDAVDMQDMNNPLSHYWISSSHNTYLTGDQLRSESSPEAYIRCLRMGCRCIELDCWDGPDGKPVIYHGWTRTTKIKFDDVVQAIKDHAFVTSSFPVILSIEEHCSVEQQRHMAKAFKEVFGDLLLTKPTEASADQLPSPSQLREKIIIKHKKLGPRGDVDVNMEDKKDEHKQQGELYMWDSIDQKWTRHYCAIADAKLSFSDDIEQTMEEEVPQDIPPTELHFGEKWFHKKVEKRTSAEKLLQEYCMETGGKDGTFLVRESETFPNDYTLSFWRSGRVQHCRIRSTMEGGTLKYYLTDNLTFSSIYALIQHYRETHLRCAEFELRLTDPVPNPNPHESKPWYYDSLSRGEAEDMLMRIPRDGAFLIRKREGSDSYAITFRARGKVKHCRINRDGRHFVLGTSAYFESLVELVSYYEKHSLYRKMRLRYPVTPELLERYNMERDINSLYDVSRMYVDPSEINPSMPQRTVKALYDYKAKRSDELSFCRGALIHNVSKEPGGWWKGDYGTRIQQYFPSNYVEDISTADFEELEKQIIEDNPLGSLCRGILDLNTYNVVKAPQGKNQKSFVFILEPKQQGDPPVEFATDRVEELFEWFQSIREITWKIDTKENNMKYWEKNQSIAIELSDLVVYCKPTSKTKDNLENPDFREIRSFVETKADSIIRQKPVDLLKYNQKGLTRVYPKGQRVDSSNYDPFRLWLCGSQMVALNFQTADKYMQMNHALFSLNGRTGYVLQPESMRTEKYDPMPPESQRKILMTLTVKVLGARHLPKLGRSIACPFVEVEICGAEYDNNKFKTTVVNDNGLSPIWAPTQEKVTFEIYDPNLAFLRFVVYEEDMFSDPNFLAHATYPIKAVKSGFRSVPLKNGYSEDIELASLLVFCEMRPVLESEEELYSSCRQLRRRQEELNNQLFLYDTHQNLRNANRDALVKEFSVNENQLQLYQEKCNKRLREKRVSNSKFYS

The targets below were run with CN[C@@H]1C[C@H]2O[C@@](C)([C@@H]1OC)n1c3ccccc3c3c4c(c5c6ccccc6n2c5c31)C(=O)NC4 [staurosporine] (assay: log2 fold change of tryptic peptide abundance, ligand vs vehicle (limited proteolysis) (log2 ratio); higher = more trypsin-susceptible (destabilized)). Details: ligand concentration: 20 uM; sample: K562 cleared lysate; digestion: 4 min, 22 C (HT-PELSA RT4min, Orbitrap Astral).

Which log2 fold change does the source give for “LCP1 (peptide sequence: NWMNSLGVNPR, peptide start residue: 402) (UniProt P13796)” here?
Its log2 fold change is 0.446.

Which log2 fold change does the source give for “ABCD3 (peptide sequence: LITNSEEIAFYNGNKR, peptide start residue: 272) (UniProt P28288)” here?
The log2 fold change was -0.144.

Which log2 fold change does the source give for “NFYB (peptide sequence: NAIPQTGKIAK, peptide start residue: 70) (UniProt P25208)” here?
Its log2 fold change is 0.472.

With “HCLS1 (peptide sequence: VSEEHDVLR, peptide start residue: 61) (UniProt P14317)” as the target, how does the log2 fold change read?
Its log2 fold change is 0.325.

For “UniProt P24468 (peptide sequence: MLFSAVEWAR, peptide start residue: 219)”, which log2 fold change is on record?
The log2 fold change was 0.0737.

With “NFKBIA (peptide sequence: HDSGLDSMKDEEYEQMVK, peptide start residue: 30) (UniProt P25963)” as the target, how does the log2 fold change read?
The log2 fold change was 0.623.

How did the log2 fold change turn out when “HMGA1 (peptide sequence: KTTTTPGR, peptide start residue: 74) (UniProt P17096)” was run?
Its log2 fold change is 0.0658.

Which log2 fold change does the source give for “CBL (peptide sequence: VPVSAPSSSDPWTGR, peptide start residue: 598) (UniProt P22681)” here?
Its log2 fold change is -0.578.

With “RFX1 (peptide sequence: LLVQTSVQAK, peptide start residue: 145) (UniProt P22670)” as the target, how does the log2 fold change read?
The log2 fold change was -0.182.

“ZNF16 (peptide sequence: TFSQNSVLK, peptide start residue: 245) (UniProt P17020)” was tested. Which log2 fold change did it give?
Its log2 fold change is -0.263.

How did the log2 fold change turn out when “HIST1H1D (peptide sequence: KPATAAGTKK, peptide start residue: 161) (UniProt P16402)” was run?
The log2 fold change was 0.263.

How did the log2 fold change turn out when “CFL1 (peptide sequence: NIILEEGK, peptide start residue: 46) (UniProt P23528)” was run?
The log2 fold change was -0.277.

For “DGKA (peptide sequence: DIGVQSHVWVR, peptide start residue: 264) (UniProt P23743)”, which log2 fold change is on record?
The log2 fold change was -0.386.

With “UniProt P13682 (peptide sequence: SHTGEKPYECK, peptide start residue: 216)” as the target, how does the log2 fold change read?
The log2 fold change was 0.57.

With “UniProt P22532 (peptide sequence: YPPVTPSPPCQPKCPPKSK, peptide start residue: 54)” as the target, how does the log2 fold change read?
The log2 fold change was -0.685.

Which log2 fold change does the source give for “UniProt P15622 (peptide sequence: AFTQLSHLIQHQR, peptide start residue: 291)” here?
Its log2 fold change is -0.157.

Which log2 fold change does the source give for “IDE (peptide sequence: VSVHVLAR, peptide start residue: 954) (UniProt P14735)” here?
The log2 fold change was -0.708.

How did the log2 fold change turn out when “GTF2F2 (peptide sequence: EIGVQNVK, peptide start residue: 219) (UniProt P13984)” was run?
Its log2 fold change is 0.186.

How did the log2 fold change turn out when “EEF1B2 (peptide sequence: WYNHIKSYEKEK, peptide start residue: 55) (UniProt P24534)” was run?
The log2 fold change was 0.811.

How did the log2 fold change turn out when “UniProt P26639 (peptide sequence: ADMETLQR, peptide start residue: 289)” was run?
The log2 fold change was 0.346.

Which log2 fold change does the source give for “NAT1 (peptide sequence: NKLDLETLTDILQHQIR, peptide start residue: 17) (UniProt P18440)” here?
Its log2 fold change is 0.947.

“UniProt P16383 (peptide sequence: YLIIALLNATPGPDVVKK, peptide start residue: 681)” was tested. Which log2 fold change did it give?
Its log2 fold change is 0.321.

“ATP6V1B2 (peptide sequence: TVSGVNGPLVILDHVKFPR, peptide start residue: 49) (UniProt P21281)” was tested. Which log2 fold change did it give?
The log2 fold change was 0.178.

Which log2 fold change does the source give for “EEF1G (peptide sequence: ILGLLDAYLKTR, peptide start residue: 138) (UniProt P26641)” here?
The log2 fold change was -0.219.

How did the log2 fold change turn out when “NCK1 (peptide sequence: TGFVPSNYVERK, peptide start residue: 48) (UniProt P16333)” was run?
The log2 fold change was -0.158.

“UniProt P17097 (peptide sequence: AFSQSSTLAQHQR, peptide start residue: 370)” was tested. Which log2 fold change did it give?
The log2 fold change was 0.208.

How did the log2 fold change turn out when “SMPD1 (peptide sequence: VGSVAIKLCNLLK, peptide start residue: 114) (UniProt P17405)” was run?
Its log2 fold change is 0.0703.

With “CHML (peptide sequence: TCMHTVSDKDGDKDESK, peptide start residue: 186) (UniProt P26374)” as the target, how does the log2 fold change read?
The log2 fold change was -0.989.

How did the log2 fold change turn out when “PTPN1 (peptide sequence: ILEPHNGK, peptide start residue: 316) (UniProt P18031)” was run?
The log2 fold change was 0.326.

For “GNS (peptide sequence: TPGVFDPGYR, peptide start residue: 520) (UniProt P15586)”, which log2 fold change is on record?
The log2 fold change was -0.513.

With “TCP1 (peptide sequence: ICDDELILIKNTK, peptide start residue: 356) (UniProt P17987)” as the target, how does the log2 fold change read?
The log2 fold change was 0.315.

Which log2 fold change does the source give for “RPA1 (peptide sequence: AAGPSLSHTSGGTQSK, peptide start residue: 168) (UniProt P27694)” here?
The log2 fold change was 0.493.

Which log2 fold change does the source give for “DARS (peptide sequence: YGISSMIQSQEKPDR, peptide start residue: 29) (UniProt P14868)” here?
The log2 fold change was 0.126.

How did the log2 fold change turn out when “ERCC2 (peptide sequence: QMAQPFHR, peptide start residue: 723) (UniProt P18074)” was run?
Its log2 fold change is 0.25.

For “PFKL (peptide sequence: LLAHQKPPK, peptide start residue: 387) (UniProt P17858)”, which log2 fold change is on record?
Its log2 fold change is 0.901.

Which log2 fold change does the source give for “DDX5 (peptide sequence: TIVFVETK, peptide start residue: 344) (UniProt P17844)” here?
The log2 fold change was -0.133.

How did the log2 fold change turn out when “ALAS2 (peptide sequence: RPVHFELMSEWER, peptide start residue: 560) (UniProt P22557)” was run?
The log2 fold change was -0.283.

For “PLCG2 (peptide sequence: GDVDVNMEDKKDEHK, peptide start residue: 462) (UniProt P16885)”, which log2 fold change is on record?
The log2 fold change was 0.457.

For “PDE4A (peptide sequence: SLSLSLPGPR, peptide start residue: 11) (UniProt P27815)”, which log2 fold change is on record?
Its log2 fold change is 0.466.

“NFYA (peptide sequence: AKLEAEGKIPK, peptide start residue: 283) (UniProt P23511)” was tested. Which log2 fold change did it give?
The log2 fold change was -0.0631.
